Reference: article PMC8928218
These are yes or no findings as the source states them, for the method shown. Some results given as binding are weak or reduced against the parent protein; the word gives no strength. Tags and fused reporters may be left off the sequences shown.

T1: SEPT6 with N-terminal 6His-tag (human) (UniProt Q14141)
T1 sequence: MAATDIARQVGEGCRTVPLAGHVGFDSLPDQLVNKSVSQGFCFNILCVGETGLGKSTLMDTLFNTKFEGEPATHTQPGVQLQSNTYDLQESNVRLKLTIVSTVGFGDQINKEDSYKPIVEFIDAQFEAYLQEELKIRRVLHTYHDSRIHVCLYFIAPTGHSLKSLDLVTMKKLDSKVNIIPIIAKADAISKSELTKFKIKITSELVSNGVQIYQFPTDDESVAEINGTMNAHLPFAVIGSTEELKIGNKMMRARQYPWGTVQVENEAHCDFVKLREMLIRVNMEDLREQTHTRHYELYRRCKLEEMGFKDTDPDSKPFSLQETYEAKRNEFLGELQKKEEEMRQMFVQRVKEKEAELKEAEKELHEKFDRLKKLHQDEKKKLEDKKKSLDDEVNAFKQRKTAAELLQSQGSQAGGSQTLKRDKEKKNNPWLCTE


Assays:
[1] = target: T1, SEPT6 with N-terminal 6His-tag (human); test: co-purification by IMAC and SEC; SEPT2, 6His-SEPT6 and SEPT7 co-expressed in E. coli without SEPT9; same purification pipeline as for octamers
[2] = target: T1, SEPT6 with N-terminal 6His-tag (human); test: glycerol density gradient centrifugation; IMAC enriched septin preparation from co-expression in E. coli; fractions compared with a 670 kD marker protein

| Binder | binding [1] | binding [2] |
| --- | --- | --- |
| SEPT2 (protein, UniProt Q15019 1-361) MSKQQPTQFINPETPGYVGFANLPNQVHRKSVKKGFEFTLMVVGESGLGKSTLINSLFLTDLYPERVIPGAAEKIERTVQIEASTVEIEERGVKLRLTVVDTPGYGDAINCRDCFKTIISYIDEQFERYLHDESGLNRRHIIDNRVHCCFYFISPFGHGLKPLDVAFMKAIHNKVNIVPVIAKADTLTLKERERLKKRILDEIEEHNIKIYHLPDAESDEDEDFKEQTRLLKASIPFSVVGSNQLIEAKGKKVRGRLYPWGVVEVENPEHNDFLKLRTMLITHMQDLQEVTQDLHYENFRSERLKRGGRKVENEDMNKDQILLEKEAELRRMQEMIARMQAQMQMQMQGGDGDGGALGHHV | binds | binds |
| SEPT7 (protein, UniProt Q16181 1-437) MSVSARSAAAEERSVNSSTMVAQQKNLEGYVGFANLPNQVYRKSVKRGFEFTLMVVGESGLGKSTLINSLFLTDLYSPEYPGPSHRIKKTVQVEQSKVLIKEGGVQLLLTIVDTPGFGDAVDNSNCWQPVIDYIDSKFEDYLNAESRVNRRQMPDNRVQCCLYFIAPSGHGLKPLDIEFMKRLHEKVNIIPLIAKADTLTPEECQQFKKQIMKEIQEHKIKIYEFPETDDEEENKLVKKIKDRLPLAVVGSNTIIEVNGKRVRGRQYPWGVAEVENGEHCDFTILRNMLIRTHMQDLKDVTNNVHYENYRSRKLAAVTYNGVDNNKNKGQLTKSPLAQMEEERREHVAKMKKMEMEMEQVFEMKVKEKVQKLKDSEAELQRRHEQMKKNLEAQHKELEEKRRQFEDEKANWEAQQRILEQQNSSRTLEKNKKKGKIF | binds | binds |
| SEPT9_(G568) (domain or fragment, UniProt Q9UHD8 1-568) MKKSYSGGTRTSSGRLRRLGDSSGPALKRSFEVEEVETPNSTPPRRVQTPLLRATVASSTQKFQDLGVKNSEPSARHVDSLSQRSPKASLRRVELSGPKAAEPVSRRTELSIDISSKQVENAGAIGPSRFGLKRAEVLGHKTPEPAPRRTEITIVKPQESAHRRMEPPASKVPEVPTAPATDAAPKRVEIQMPKPAEAPTAPSPAQTLENSEPAPVSQLQSRLEPKPQPPVAEATPRSQEATEAAPSCVGDMADTPRDAGLKQAPASRNEKAPVDFGYVGIDSILEQMRRKAMKQGFEFNIMVVGQSGLGKSTLINTLFKSKISRKSVQPTSEERIPKTIEIKSITHDIEEKGVRMKLTVIDTPGFGDHINNENCWQPIMKFINDQYEKYLQEEVNINRKKRIPDTRVHCCLYFIPATGHSLRPLDIEFMKRLSKVVNIVPVIAKADTLTLEERVHFKQRITADLLSNGIDVYPQKEFDEDSEDRLVNEKFREMIPFAVVGSDHEYQVNGKRILGRKTKWGTIEVENTTHCEFAYLRDLLIRTHMQNIKDITSSIHFEAYRVKRLNEG |  | binds |
